The exact form of at least one protein or probe is not confirmed. Where cells or extracts were used, other partners may take part. The comparison behind a weaker result is the experiment's own reference, which may not be listed here. Where a protein sequence is shown, tags need not be part of it.
Target: T1, HNRNPH1 (endogenous, cell lysate) (Homo sapiens) (UniProt P31943)
T1 sequence (looked up, limits assumed): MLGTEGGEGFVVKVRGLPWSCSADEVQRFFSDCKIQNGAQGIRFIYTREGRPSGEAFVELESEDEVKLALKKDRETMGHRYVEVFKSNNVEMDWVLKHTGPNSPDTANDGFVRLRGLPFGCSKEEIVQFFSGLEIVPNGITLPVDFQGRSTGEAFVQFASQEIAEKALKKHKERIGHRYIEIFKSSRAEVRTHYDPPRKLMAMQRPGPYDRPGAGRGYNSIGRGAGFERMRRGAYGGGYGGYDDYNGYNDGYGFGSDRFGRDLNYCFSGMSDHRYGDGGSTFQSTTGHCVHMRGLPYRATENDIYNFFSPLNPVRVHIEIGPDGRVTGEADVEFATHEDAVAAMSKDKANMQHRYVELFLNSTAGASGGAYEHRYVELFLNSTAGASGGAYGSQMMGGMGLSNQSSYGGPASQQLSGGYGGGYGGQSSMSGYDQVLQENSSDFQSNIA
Assay: pull-down
Settings: protein in an extract

[1] = biotinylated 300-nt RNA in cell lysate, 4 C, western blot, label: biotin-16-UTP

Sequence: ATTGGCGGGGTCTCGGTGGGGGCGGGCCGGTTGCCGGGGGGAGCTGGAGTCACGTGACGGCCGGCGCGG / GCGACTATACGCGCAATATG [INCA1 fragment F4 with control ASO NC]
- binding result (ASO fully 2'-MOE and PS, control ASO has no effect on binding, label: biotin-16-UTP on F4): binds

Sequence: CCGCUGUGGCUGUGGUGGGCGGUAGGGGCUUUUACCGUGUGAGCUCCUUUAAUGCCGGGGUCUGCAGUG
- binding result [1]: binds

Sequence: ATTGGCGGGGTCTCGGTGGGGGCGGGCCGGTTGCCGGGGGGAGCTGGAGTCACGTGACGGCCGGCGCGG / CTCCAGCTCCCCCCGGCAAC [INCA1 fragment F4 annealed with ASO H1B]
- binding result (ASO fully 2'-MOE and PS, ASO H1B blocks the binding site, dose-dependent reduction, label: biotin-16-UTP on F4): binds more weakly

Sequence: AUUGGCGGGGUCUCGGUGGGGGCGGGCCGGUUGCCGGGGGGAGCUGGAGUCACGUGACGGCCGGCGCGG
- binding result [1]: binds

Sequence: UGAAUAGAAGGAGGGUUGAGGGGAUAUGGUGUGGAAUGGGGGAAGGAGGAGUCUGAAAUAGAAGAAAGA
- binding result [1]: binds

Sequence: CUGGGUGGAAGUUGGGGGUGGGACGGCGCCGGGAGGCCGGGGAGGCAGCGGCGAAAGGCGGCGGGCGG
- binding result [1]: binds

— patent US20210380978
